{"source": "paper PMC9425028", "binders": {"B1": {"name": "mouse ficolin-A (protein, UniProt O70165 18-334)", "chain": "SQALGQERGACPDVKVVGLGAQDKVVVIQSCPGFPGPPGPKGEPGSPAGRGERGFQGSPGKMGPAGSKGEPGTMGPPGVKGEKGDTGAAPSLGEKELGDTLCQRGPRSCKDLLTRGIFLTGWYTIHLPDCRPLTVLCDMDVDGGGWTVFQRRVDGSIDFFRDWDSYKRGFGNLGTEFWLGNDYLHLLTANGNQELRVDLQDFQGKGSYAKYSSFQVSEEQEKYKLTLGQFLEGTAGDSLTKHNNMSFTTHDQDNDANSMNCAALFHGAWWYHNCHQSNLNGRYLSGSHESYADGINWGTGQGHHYSYKVAEMKIRAS"}}, "molecular_target": "wild-type recombinant mouse MASP-3 fused with PA-tag (WT rmMASP-3-PA) (mouse) (UniProt P98064)", "assay": "co-IP; 100 ug rmMASP-3-PA given intravenously to MASP-3-deficient C57BL/6J mice, serum taken after 3 h; immunoprecipitation with anti-PA tag antibody beads in TBS with 7 mM MgCl2 and 5 mM CaCl2, 4°C overnight, four washes; reducing SDS-PAGE and Western blot for each LP-PRM, band intensity normalised to rmMASP-3-PA; WT serum also precipitated in TBS with 7 mM MgCl2 and 10 mM EGTA as negative control (levels significantly reduced); only the target purified", "note": "Results are given in words; binding and its absence hold for the method and conditions named. In cells and extracts the contact can be indirect. Some entries that bind do so weakly or less than the wild type.", "data": [{"binder": "B1", "values": [{"measurement": "binding", "result": "binds"}]}]}
